Test [1] addresses His-SUMO-Mis18α_(188-233 I201A/L205A) (human) (UniProt Q9NYP9). Description: SEC-MALS; Superdex 75 increase 10/300 GL, 50 mM HEPES pH 8.0, 150 mM NaCl, 1 mM TCEP, 22 °C; 100 µl of 2–6 mg/ml injected; both purified.
Test [2] deals with His-SUMO-Mis18α_(188-233 L212A/L215A/L219A) (human) (UniProt Q9NYP9). Described as above.

No constants are given. Whether binding was seen depends on the method and setting. Where a sequence is shown, tags or fusion partners need not be part of it.

Here are results for 2 molecules from PMC11315898.

As for EDKELFNLESRVEAEKSATQMEDVLKALQMKLWEAESKLSFATCKS (domain or fragment, UniProt Q9NYP9 188-233) [His-SUMO-Mis18α_(188-233 I201A/L205A)], the binding result in test [1] was “no binding (tested: 100 µl of 2–6 mg/ml injected)”. On to EDKELFNLESRVEIEKSLTQMEDVAKAAQMKAWEAESKLSFATCKS (domain or fragment, UniProt Q9NYP9 188-233) [His-SUMO-Mis18α_(188-233 L212A/L215A/L219A)], for which the binding result in test [2] was “no binding (tested: 100 µl of 2–6 mg/ml injected)”.
